{"source": "PubChem BioAssay AID1259254 (NCATS, 2017)", "purpose": "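Gene knock-downs that lead to re-replication, shown by excess G2 DNA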 (primary screen)", "system": "human HCT116 colorectal cancer cells", "reagent": "single siRNA against human genes", "timing": "3 days", "measured": "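Imaged Hoechst DNA stain sorts each cell into a cycle phase by DNA amount; per plate, G2 fraction set to 0% for non-targeting and 100% for GMNN siRNA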", "reading the numbers": "G2 robust z-score and G2 cells, % of GMNN control: higher = more G2 cells, more excess DNA replication", "call rule": "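An siRNA counts as active if its G2 robust z-score lies at least 5 MADs above the screen median; here such calls match roughly 38% of GMNN control or more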", "note": "Here is one part, drawn at random, of about 59,000 reagents tested. Over the whole deposit, about 1,550 (2.6%) are marked active. 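G2 share is only a proxy for re-replication; each gene was hit by three separate siRNAs, and active genes were retested.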 Reagents against one gene are numbered here. Not all columns of the deposit are shown. Reagent sequences are not shown. The record does not give: the amount of reagent."}
{"gene symbol": "TBX3 (T-box transcription factor 3)", "siRNA no.": 1, "G2 robust z-score": -1.19, "G2 cells, % of GMNN control": -5.38, "Call": "inactive"}
{"gene symbol": "TBX3 (T-box transcription factor 3)", "siRNA no.": 2, "G2 robust z-score": 2.61, "G2 cells, % of GMNN control": 21.3, "Call": "inactive"}
{"gene symbol": "TBX3 (T-box transcription factor 3)", "siRNA no.": 3, "G2 robust z-score": -0.724, "G2 cells, % of GMNN control": -2.13, "Call": "inactive"}
{"gene symbol": "GTF2H5 (general transcription factor IIH subunit 5)", "siRNA no.": 1, "G2 robust z-score": 0.79, "G2 cells, % of GMNN control": 8.53, "Call": "inactive"}
{"gene symbol": "GTF2H5 (general transcription factor IIH subunit 5)", "siRNA no.": 2, "G2 robust z-score": 0.14, "G2 cells, % of GMNN control": 3.95, "Call": "inactive"}
{"gene symbol": "GTF2H5 (general transcription factor IIH subunit 5)", "siRNA no.": 3, "G2 robust z-score": -0.827, "G2 cells, % of GMNN control": -2.85, "Call": "inactive"}
{"gene symbol": "NIPAL2 (NIPA like domain containing 2)", "siRNA no.": 1, "G2 robust z-score": -0.886, "G2 cells, % of GMNN control": -3.27, "Call": "inactive"}
{"gene symbol": "NIPAL2 (NIPA like domain containing 2)", "siRNA no.": 2, "G2 robust z-score": 0.878, "G2 cells, % of GMNN control": 9.14, "Call": "inactive"}
{"gene symbol": "NIPAL2 (NIPA like domain containing 2)", "siRNA no.": 3, "G2 robust z-score": 6.6, "G2 cells, % of GMNN control": 49.4, "Call": "active"}
{"gene symbol": "HEATR5B (HEAT repeat containing 5B)", "siRNA no.": 1, "G2 robust z-score": -0.978, "G2 cells, % of GMNN control": -3.91, "Call": "inactive"}
{"gene symbol": "HEATR5B (HEAT repeat containing 5B)", "siRNA no.": 2, "G2 robust z-score": -0.15, "G2 cells, % of GMNN control": 1.91, "Call": "inactive"}
{"gene symbol": "HEATR5B (HEAT repeat containing 5B)", "siRNA no.": 3, "G2 robust z-score": 2.16, "G2 cells, % of GMNN control": 18.2, "Call": "inactive"}
{"gene symbol": "CRYBA1 (crystallin beta A1)", "siRNA no.": 1, "G2 robust z-score": 0.712, "G2 cells, % of GMNN control": 7.97, "Call": "inactive"}
{"gene symbol": "CRYBA1 (crystallin beta A1)", "siRNA no.": 2, "G2 robust z-score": -0.105, "G2 cells, % of GMNN control": 2.23, "Call": "inactive"}
{"gene symbol": "CRYBA1 (crystallin beta A1)", "siRNA no.": 3, "G2 robust z-score": -0.884, "G2 cells, % of GMNN control": -3.25, "Call": "inactive"}
{"gene symbol": "MMP25 (matrix metallopeptidase 25)", "siRNA no.": 1, "G2 robust z-score": -0.466, "G2 cells, % of GMNN control": -0.313, "Call": "inactive"}
{"gene symbol": "MMP25 (matrix metallopeptidase 25)", "siRNA no.": 2, "G2 robust z-score": 4.98, "G2 cells, % of GMNN control": 38, "Call": "inactive"}
{"gene symbol": "MMP25 (matrix metallopeptidase 25)", "siRNA no.": 3, "G2 robust z-score": 2.65, "G2 cells, % of GMNN control": 21.6, "Call": "inactive"}
{"gene symbol": "CX3CR1 (C-X3-C motif chemokine receptor 1)", "siRNA no.": 1, "G2 robust z-score": 0.52, "G2 cells, % of GMNN control": 6.63, "Call": "inactive"}
{"gene symbol": "CX3CR1 (C-X3-C motif chemokine receptor 1)", "siRNA no.": 2, "G2 robust z-score": 2.22, "G2 cells, % of GMNN control": 18.6, "Call": "inactive"}
{"gene symbol": "CX3CR1 (C-X3-C motif chemokine receptor 1)", "siRNA no.": 3, "G2 robust z-score": 0.129, "G2 cells, % of GMNN control": 3.88, "Call": "inactive"}
{"gene symbol": "CMTM7 (CKLF like MARVEL transmembrane domain containing 7)", "siRNA no.": 1, "G2 robust z-score": 3.63, "G2 cells, % of GMNN control": 28.5, "Call": "inactive"}
{"gene symbol": "CMTM7 (CKLF like MARVEL transmembrane domain containing 7)", "siRNA no.": 2, "G2 robust z-score": -0.384, "G2 cells, % of GMNN control": 0.269, "Call": "inactive"}
{"gene symbol": "CMTM7 (CKLF like MARVEL transmembrane domain containing 7)", "siRNA no.": 3, "G2 robust z-score": -0.022, "G2 cells, % of GMNN control": 2.81, "Call": "inactive"}

4 entries already listed, sorted by “G2 cells, % of GMNN control”, highest first:
{"gene symbol": "NIPAL2 (NIPA like domain containing 2)", "siRNA no.": 3, "G2 robust z-score": 6.6, "G2 cells, % of GMNN control": 49.4, "Call": "active"}
{"gene symbol": "NIPAL2 (NIPA like domain containing 2)", "siRNA no.": 2, "G2 robust z-score": 0.878, "G2 cells, % of GMNN control": 9.14, "Call": "inactive"}
{"gene symbol": "HEATR5B (HEAT repeat containing 5B)", "siRNA no.": 2, "G2 robust z-score": -0.15, "G2 cells, % of GMNN control": 1.91, "Call": "inactive"}
{"gene symbol": "HEATR5B (HEAT repeat containing 5B)", "siRNA no.": 1, "G2 robust z-score": -0.978, "G2 cells, % of GMNN control": -3.91, "Call": "inactive"}
